Consider one substance from article PMC11087087.

By UniProt entry, the sequences of proteins in these tests, tags left out.
UniProt P31749: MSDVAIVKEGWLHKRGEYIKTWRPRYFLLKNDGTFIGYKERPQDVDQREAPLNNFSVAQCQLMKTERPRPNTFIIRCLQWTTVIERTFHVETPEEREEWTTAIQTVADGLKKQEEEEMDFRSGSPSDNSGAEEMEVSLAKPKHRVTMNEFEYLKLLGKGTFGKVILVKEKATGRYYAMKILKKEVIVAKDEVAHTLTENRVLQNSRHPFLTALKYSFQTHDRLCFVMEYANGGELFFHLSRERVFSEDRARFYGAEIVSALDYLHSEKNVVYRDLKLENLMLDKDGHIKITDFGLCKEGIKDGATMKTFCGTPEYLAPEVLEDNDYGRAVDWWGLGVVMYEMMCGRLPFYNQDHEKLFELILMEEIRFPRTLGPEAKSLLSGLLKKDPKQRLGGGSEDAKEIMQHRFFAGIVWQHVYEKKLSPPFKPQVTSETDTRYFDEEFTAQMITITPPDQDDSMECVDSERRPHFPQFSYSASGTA

The target in the experiment is T1, Flag-tagged PDZK1 (UniProt Q5T2W1).
T1 sequence: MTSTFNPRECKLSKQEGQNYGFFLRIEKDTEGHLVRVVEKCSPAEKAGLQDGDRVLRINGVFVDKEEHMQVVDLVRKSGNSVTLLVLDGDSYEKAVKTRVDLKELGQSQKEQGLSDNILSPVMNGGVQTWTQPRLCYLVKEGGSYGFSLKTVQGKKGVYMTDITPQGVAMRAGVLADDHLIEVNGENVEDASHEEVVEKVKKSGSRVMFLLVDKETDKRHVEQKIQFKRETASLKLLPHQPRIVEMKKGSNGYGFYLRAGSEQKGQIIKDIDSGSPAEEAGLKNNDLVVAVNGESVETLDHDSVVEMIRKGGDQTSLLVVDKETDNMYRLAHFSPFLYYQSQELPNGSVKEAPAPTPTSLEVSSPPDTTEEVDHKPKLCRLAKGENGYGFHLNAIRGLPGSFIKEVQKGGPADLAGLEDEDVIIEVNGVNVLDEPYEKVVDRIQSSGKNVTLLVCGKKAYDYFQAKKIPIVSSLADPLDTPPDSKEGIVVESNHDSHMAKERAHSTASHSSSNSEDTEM
Nature of the experiment: co-IP; U251 cells transfected with Flag-PDZK1; endogenous AKT1 detected in the co-immunoprecipitate; protocol as in ref. 19.

These are yes or no findings as the source states them, for the method shown. Binding seen in cells or lysates may run through a third protein. Some entries that bind do so weakly or less than the wild type. Tags and fused reporters may be left off the sequences shown.

“endogenous AKT1 (from UniProt P31749 1-480)”: the binding result is “binds”.
